In PubChem BioAssay AID248 (DTP/NCI, 2004):
The list does not hold the whole screen: it is rich in T/C values a quarter to a half above the control, in often repeated tests (any T/C) and in doses without a T/C. Further doses and runs are listed elsewhere. T/C is the treated group as % of the vehicle group. Some doses have a count of surviving animals in place of a T/C: the source files T/C as zero there, which appears to mark a toxic dose or a test without result, not a measured value. Some survivor counts are full or nearly so, which does not show that the dose was tolerated: the source hardly ever lists a survival T/C far under the control, and the zero likely stands for such cases as well. Counts of survivors are from the toxicity check (mostly the fifth day) where no day follows; animals may have died later. Schedules are NCI's codes, read here as Q, the interval in days (D) or hours (H), X, the number of doses. Some doses were run more than once; the results are listed from low to high. Some schedule codes hold Z or #, which are not explained here. Where survival is the endpoint, the PubChem record calls one and a half times the control and up active, and a quarter to a half above the control has no call in these data; cut-offs in other NCI protocols can differ. Additions like (4×) say how often a value occurs here. Some T/C values carry the count of animals alive at the toxicity check (mostly the fifth day); where none is given, no animal had died by that day.

Test system: L1210 leukemia ip in BDF1 mice, survival T/C
Experiment: NCI In Vivo Anticancer Drug Screen. Data for tumor model L1210 Leukemia (intraperitoneal) in B6D2F1 (BDF1) mice
Details: T/C endpoint: mean survival time, higher T/C = longer survival
[1] = dose: 200.0 mg/kg/injection, schedule: Q04DX003 (ip), vehicle: saline
[2] = dose: 400.0 mg/kg/injection, schedule: Q04DX003 (ip), vehicle: saline
[3] = dose: 200.0 mg/kg/injection, schedule: Q01DX009 (ip), vehicle: saline
[4] = dose: 400.0 mg/kg/injection, schedule: Q04DX002 (ip), vehicle: Klucel (hydroxypropylcellulose) (HPC)
[5] = dose: 400.0 mg/kg/injection, schedule: Q01DX001 (ip), vehicle: carboxymethylcellulose (CMC)
[6] = dose: 400.0 mg/kg/injection, schedule: Q04DX003 (ip), vehicle: Klucel (hydroxypropylcellulose) (HPC)
[7] = dose: 100.0 mg/kg/injection, schedule: Q01DX009 (ip), vehicle: saline
[8] = dose: 400.0 mg/kg/injection, schedule: Q01DX009 (ip), vehicle: saline
[9] = dose: 50.0 mg/kg/injection, schedule: Q04DX003 (ip), vehicle: saline
[10] = dose: 100.0 mg/kg/injection, schedule: Q01DX009 (ip), vehicle: saline with Tween-80
[11] = dose: 200.0 mg/kg/injection, schedule: Q01DX009 (ip), vehicle: saline with Tween-80
[12] = dose: 400.0 mg/kg/injection, schedule: Q01DX009 (ip), vehicle: saline with Tween-80
[13] = dose: 100.0 mg/kg/injection, schedule: Q01DX001 (ip), vehicle: Klucel (hydroxypropylcellulose) (HPC)
[14] = dose: 25.0 mg/kg/injection, schedule: Q01DX009 (ip), vehicle: saline with Tween-80

With `CC(Oc1ccc(Cl)cc1)C(/C=N/N=C(N)N)=N/N=C(N)N` (stereo not drawn) the survivor count (dose: 100.0 mg/kg/injection, schedule: Q04DX003 (ip), vehicle: saline) was 0 of 6, the survivor count [1] was 0 of 6 and the survivor count [2] was 0 of 6.

For `CCOC(=O)CCC(NC(=O)c1ccc(N(C)C(=O)OCc2ccccc2)cc1)C(=O)OCC` (stereo not drawn), the survivor count (dose: 100.0 mg/kg/injection, schedule: Q01DX001 (ip), vehicle: carboxymethylcellulose (CMC)) was 6 of 6.

With `O=C(O)c1c[nH]c2c(Cl)cc(Cl)cc2c1=O` the survivor count (dose: 100.0 mg/kg/injection, schedule: Q01DX001 (ip), vehicle: saline) was 4 of 4.

`O=C1/C(=C\c2ccccc2)C(Br)c2ccccc21` (stereo not drawn) was tested, and the survivor count (dose: 100.0 mg/kg/injection, schedule: Q01DX009 (ip), vehicle: water) was 3 of 6, the survivor count (dose: 100.0 mg/kg/injection, schedule: Q04DX003 (ip), vehicle: water) was 1 of 6 and the survivor count (dose: 200.0 mg/kg/injection, schedule: Q01DX009 (ip), vehicle: water) was 1 of 6. The survivor count (dose: 200.0 mg/kg/injection, schedule: Q04DX003 (ip), vehicle: water) was 0 of 6 and the survivor count (dose: 400.0 mg/kg/injection, schedule: Q04DX003 (ip), vehicle: water) was 6 of 6.

For `CCC(Br)C(=O)O` (stereo not drawn), the survivor count [3] was 1 of 3 and 3 of 6, the survivor count (dose: 400.0 mg/kg/injection, schedule: Q01DX001 (ip), vehicle: saline) was 0 of 6 and the survivor count (dose: 400.0 mg/kg/injection, schedule: Q04DX002 (ip), vehicle: saline) was 2 of 3.

With `CCOC(=O)CNc1ccc(C)c(F)c1` the survivor count (dose: 200.0 mg/kg/injection, schedule: Q04DX002 (ip), vehicle: Klucel (hydroxypropylcellulose) (HPC)) was 2 of 3 and the survivor count [4] was 0 of 3.

In the case of `CCCCN(C)N=Nc1c(C(N)=O)n[nH]c1C`, the T/C (dose: 16.0 mg/kg/injection, schedule: Q03HX024 (ip), vehicle: Klucel (hydroxypropylcellulose) (HPC)) is reported as 131 % of control, the T/C (dose: 20.0 mg/kg/injection, schedule: Q01DX009 (ip), vehicle: Klucel (hydroxypropylcellulose) (HPC)) is reported as 134 % of control and the T/C (dose: 30.0 mg/kg/injection, schedule: Q01DX009 (ip), vehicle: Klucel (hydroxypropylcellulose) (HPC)) is reported as 142 % of control. For the same molecule, the T/C (dose: 32.0 mg/kg/injection, schedule: Q01DX009 (ip), vehicle: Klucel (hydroxypropylcellulose) (HPC)) was 134 % of control, the T/C (dose: 32.0 mg/kg/injection, schedule: Q03HX016 (ip), vehicle: Klucel (hydroxypropylcellulose) (HPC)) was 148 % of control and the T/C (dose: 64.0 mg/kg/injection, schedule: Q01DX009 (ip), vehicle: Klucel (hydroxypropylcellulose) (HPC)) was 128 % of control. The T/C (dose: 128.0 mg/kg/injection, schedule: Q04DX003 (ip), vehicle: Klucel (hydroxypropylcellulose) (HPC)) was 144 % of control, the survivor count (dose: 256.0 mg/kg/injection, schedule: Q01DX001 (ip), vehicle: Klucel (hydroxypropylcellulose) (HPC)) was 6 of 10 and the T/C (dose: 256.0 mg/kg/injection, schedule: Q04DX003 (ip), vehicle: Klucel (hydroxypropylcellulose) (HPC)) was 144 % of control [8 of 10 alive]. The T/C (dose: 256.0 mg/kg/injection, schedule: Q08DX002 (ip), vehicle: Klucel (hydroxypropylcellulose) (HPC)) was 144 % of control [8 of 10 alive], the survivor count (dose: 266.0 mg/kg/injection, schedule: Q01DX001 (ip), vehicle: carboxymethylcellulose (CMC)) was 1 of 6 and the survivor count [5] was 0 of 6. For the same molecule, the survivor count (dose: 600.0 mg/kg/injection, schedule: Q01DX001 (ip), vehicle: carboxymethylcellulose (CMC)) was 0 of 6.

With `O=C(NCCCl)NNC(=O)c1ccccc1` the survivor count [6] was 3 of 6.

With `ClCCN1CCOCC1` the survivor count [7] was 0 of 6, the survivor count [1] was 1 of 6 and the survivor count [2] was 0 of 6.

With `C=CCNC(=O)/C=C\C(=O)O` the survivor count [4] was 3 of 3.

With `N#Cc1ncc(-c2ccc(Cl)cc2)nc1Cl` the survivor count [8] was 5 of 6.

`CC(=O)C(C#N)C(C)=O.CC(=O)C(C#N)C(C)=O.[Mn]` was tested, and the survivor count [3] was 0 of 6, the survivor count [8] was 0 of 6 and the survivor count [2] was 3 of 6.

With `CN1CCC(=C2c3ccccc3C=Cc3ccccc32)CC1` the survivor count [9] was 4 of 4, the survivor count [7] was 4 of 6 and the survivor count [1] was 0 of 4. For the same molecule, the survivor count [2] was 0 of 4.

With `CC(=O)c1c(O)cc(O)cc1-c1cc(=O)c2c(O)ccc(C(C)=O)c2o1` the survivor count [5] was 2 of 4.

`CCCC[n+]1cc(C(N)=O)cc2ccccc21` was tested, and the survivor count (dose: 300.0 mg/kg/injection, schedule: Q01DX001 (ip), vehicle: saline) was 0 of 6.

With `c1cc[c]([Pb]([c]2ccccc2)([c]2ccccc2)[n]2ccc3ccccc32)cc1` the survivor count (dose: 6.25 mg/kg/injection, schedule: Q01DX009 (ip), vehicle: saline with Tween-80) was 3 of 6, the survivor count (dose: 12.5 mg/kg/injection, schedule: Q01DX009 (ip), vehicle: acetone) was 0 of 6 and the survivor count (dose: 25.0 mg/kg/injection, schedule: Q01DX009 (ip), vehicle: acetone) was 0 of 6. For the same molecule, the survivor count (dose: 50.0 mg/kg/injection, schedule: Q01DX009 (ip), vehicle: acetone) was 0 of 6, the survivor count [10] was 0 of 6 and the survivor count [11] was 0 of 6. The survivor count [12] was 0 of 6.

In the case of `NC(CSSc1ccccc1)=NC1CCCCC1`, the survivor count [13] is reported as 0 of 3, the survivor count (dose: 200.0 mg/kg/injection, schedule: Q01DX001 (ip), vehicle: Klucel (hydroxypropylcellulose) (HPC)) is reported as 0 of 3 and the survivor count (dose: 400.0 mg/kg/injection, schedule: Q01DX001 (ip), vehicle: Klucel (hydroxypropylcellulose) (HPC)) is reported as 0 of 3.

In the case of `O=C(Cc1cccc2ccccc12)N/N=C/c1cccc([N+](=O)[O-])c1`, the survivor count (dose: 400.0 mg/kg/injection, schedule: Q01DX009 (ip), vehicle: Klucel (hydroxypropylcellulose) (HPC)) is reported as 5 of 6.

`CCC1OCC(C(Cl)CCl)O1` (stereo not drawn) was tested, and the survivor count (dose: 200.0 mg/kg/injection, schedule: Q01DX009 (ip), vehicle: saline sonified) was 3 of 6 and the survivor count (dose: 400.0 mg/kg/injection, schedule: Q01DX009 (ip), vehicle: saline sonified) was 0 of 6.

`COc1cc(/C=C2\CCC/C(=C\c3ccc(O)c(OC)c3)C2=O)ccc1O` was tested, and the survivor count [6] was 6 of 6.

With `Oc1ccc2ccnc(Cc3ccc(Br)cc3)c2c1` the survivor count [13] was 6 of 6.

For `O=[N+]([O-])C(Br)C(Br)c1ccccc1` (stereo not drawn), the survivor count (dose: 75.0 mg/kg/injection, schedule: Q01DX001 (ip), vehicle: Klucel (hydroxypropylcellulose) (HPC)) was 6 of 6, the survivor count (dose: 150.0 mg/kg/injection, schedule: Q01DX001 (ip), vehicle: Klucel (hydroxypropylcellulose) (HPC)) was 1 of 6 and the survivor count (dose: 300.0 mg/kg/injection, schedule: Q01DX001 (ip), vehicle: Klucel (hydroxypropylcellulose) (HPC)) was 0 of 6.

For `CCOC(=O)N1CCN(CCO)CC1`, the survivor count [2] was 2 of 3.

`S=C(NCc1ccccc1)[S][Sn]([c]1ccccc1)([c]1ccccc1)[c]1ccccc1` was tested, and the survivor count (dose: 100.0 mg/kg/injection, schedule: Q01DX001 (ip), vehicle: steroid suspending solution) was 1 of 6, the survivor count (dose: 200.0 mg/kg/injection, schedule: Q01DX001 (ip), vehicle: steroid suspending solution) was 0 of 6 and the survivor count (dose: 400.0 mg/kg/injection, schedule: Q01DX001 (ip), vehicle: steroid suspending solution) was 0 of 6.

In the case of `C=CCOC(=O)OCc1ccccc1`, the survivor count (dose: 500.0 mg/kg/injection, schedule: Q01DX Z (ip), vehicle: methylcellulose (MC)) is reported as 5 of 6.

With `CC(=O)OC(C)C1C2=C(C(=O)CC1(C)O)C(=O)c1c(ccc(-c3ccc4c(c3O)C(=O)C3=C(C4=O)C(C(C)OC(C)=O)C(C)(O)CC3=O)c1O)C2=O` (stereo not drawn) the survivor count [14] was 2 of 6.

`CC(=O)Nc1ccc(OC(=O)Nc2cccc(Cl)c2C)cc1` was tested, and the T/C [10] was 87 and 102 % of control, the survivor count [10] was 3 of 3 and 6 of 6 and the T/C [11] was 93, 94 (2×), 97 % of control. For the same molecule, the survivor count [12] was 6 of 6.

With `CCc1cc2c(cc1C(=O)CBr)C(C)(C)CCC2(C)C` the survivor count [14] was 3 of 6 and the survivor count [9] was 1 of 6.
